Data reported in patent US20130023532A1, “INDAZOLYL-PYRIMIDINES AS KINASE INHIBITORS” (priority 2010, published 2013).
Some results were stated once for a whole list of compounds, not compound by compound.

By UniProt entry, the sequences of proteins in these tests, tags left out.
UniProt O43353, whole entry: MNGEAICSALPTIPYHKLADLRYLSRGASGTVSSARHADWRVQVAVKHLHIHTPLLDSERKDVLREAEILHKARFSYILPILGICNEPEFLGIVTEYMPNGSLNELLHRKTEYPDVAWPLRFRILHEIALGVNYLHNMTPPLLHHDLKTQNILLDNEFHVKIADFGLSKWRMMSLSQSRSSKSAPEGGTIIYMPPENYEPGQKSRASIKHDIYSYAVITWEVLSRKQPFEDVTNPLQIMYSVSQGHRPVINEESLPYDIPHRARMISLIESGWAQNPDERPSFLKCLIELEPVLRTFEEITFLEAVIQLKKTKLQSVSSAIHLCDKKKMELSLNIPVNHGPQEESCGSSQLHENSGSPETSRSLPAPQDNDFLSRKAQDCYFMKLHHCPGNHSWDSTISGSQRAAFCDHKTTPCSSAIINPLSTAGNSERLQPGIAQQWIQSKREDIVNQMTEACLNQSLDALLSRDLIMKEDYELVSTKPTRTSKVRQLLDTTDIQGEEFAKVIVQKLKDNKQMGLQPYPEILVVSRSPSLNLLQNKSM

Target: T1, RIPK2 (Homo sapiens, UniProt O43353)
T1 construct: Full length FLAG His tagged RIPK2 was purified from a Baculovirus expression system; FLAG (N); 6His (N); made in house; host or cells: Spodoptera frugiperda (Sf9) insect cells, baculovirus
Assay: Fluorescent polarization based binding assay at the ATP binding pocket of RIPK2
Conditions: FP competition with fluorescently labeled ATP competitive ligand (5 nM); full length FLAG His tagged RIPK2; mean of a minimum of 2 experiments
Description: A fluorescent polarization based binding assay was developed to quantitate interaction of novel test compounds at the ATP binding pocket of RIPK2, by competition with a fluorescently labeled ATP competitive ligand. Full length FLAG His tagged RIPK2 was purified from a Baculovirus expression system and was used at a final assay concentration of twice the KDapparent. A fluorescent labeled ligand (5-({[2-({[3-({4-[(5-hydroxy-2-methylphenyl)amino]-2-pyrimidinyl}amino)phenyl]carbonyl}amino)ethyl]amino}carbonyl)-2-(6-hydroxy-3-oxo-3H-xanthen-9-yl)benzoic acid, prepared as described below) was used at a final assay concentration of 5 nM. Both the enzyme and ligand were prepared in solutions in 50 mM HEPES pH7.5, 150 mM NaCl, 10 mM MgCl2, 1 mM DTT, and 1 mM CHAPS. Test compounds were prepared in 100% DMSO and 100 nL was dispensed to individual wells of a multiwell plate. Next, 5 ul RIPK2 was added to the test compounds at twice the final assay concentration, and incubated at room temperature for 10 minutes. Following the incubation, 5 ul of the fluorescent labeled ligand solution, was added to each reaction, at twice the final assay concentration, and incubated at room temperature for at least 10 minutes. Finally, samples were read on an instrument capable of measuring fluorescent polarization. Test compound inhibition was expressed as percent (%) inhibition of internal assay controls.
For concentration response experiments, normalized data were fit and pIC50 s determined using conventional techniques. For example, the following four parameter logistic equation may be used: y=A+((B−C))/(1+(10^x)/(10^C)^D), where: y is the % activity (% inhibition) at a specified compound concentration; A is the minimum % activity; B is the maximum % activity; C=log10(IC50); D=Hill slope; x=log10 (compound concentration [M]); and pIC50=(—C).
The pIC50s are averaged to determine a mean value, for a minimum of 2 experiments.
Full-length human RIPK2 (receptor-interacting serine-threonine kinase 2) cDNA was purchased from Invitrogen (Carlsbad, Calif., USA, Clone ID:IOH6368, RIPK2-pENTR 221). Gateway® LR cloning was used to site-specifically recombine RIPK2 downstream to an N-terminal FLAG-6His contained within the destination vector pDEST8-FLAG-His6 according to the protocol described by Invitrogen. Transfection into Spodoptera frugiperda(Sf9) insect cells was performed using Cellfectin® (Invitrogen), according to the manufacturer's protocol.

Row | SMILES | mean pIC50
1 | Cc1ccc(Nc2nccc(N(C)c3n[nH]c4ccc(F)cc34)n2)cc1S(C)(=O)=O [Example 66, N4-(5-FLUORO- 1H-INDAZOL-3- YL)-N4-METHYL- N2-[4-METHYL-3- (METHYL- SULFONYL) PHENYL]-2,4- PYRIMIDINE- DIAMINE] | greater than or equal to 6.0
2 | Cc1cc(Nc2nccc(N(C)c3n[nH]c4ccc(F)cc34)n2)cc(S(C)(=O)=O)c1 [Example 67, N4-(5-FLUORO- 1H-INDAZOL-3- YL)-N4-METHYL- N2-[3-METHYL-5- (METHYL- SULFONYL) PHENYL]-2,4- PYRIMIDINE- DIAMINE] | greater than or equal to 6.0
3 | CCN(c1ccnc(Nc2cc(C)cc(S(C)(=O)=O)c2)n1)c1n[nH]c2ccc(F)cc12 [Example 68, N4-ethyl-N4-(5-fluoro-1H-indazol-3-yl)-N2-[3-methyl-5-(methylsulfonyl)phenyl]-2,4-pyrimidinediamine] | greater than or equal to 6.0
4 | CS(=O)(=O)c1cc(Nc2nccc(Nc3n[nH]c4ccc(F)cc34)n2)cc(N2CCOCC2)c1 [Example 69, N^4-(5-fluoro-1H-indazol-3-yl)-N^2-[3-(methylsulfonyl)-5-(4-morpholinyl)phenyl]-2,4-pyrimidinediamine] | greater than or equal to 6.0
5 | CS(=O)(=O)c1cc(F)cc(Nc2nccc(Nc3n[nH]c4ccc(F)cc34)n2)c1 [Example 72, N^4-(5-fluoro-1H-indazol-3-yl)-N^2-[3-fluoro-5-(methylsulfonyl)phenyl]-2,4-pyrimidinediamine] | greater than or equal to 6.0
6 | Cc1ccc(Nc2nccc(Nc3n[nH]c4ccc(F)cc34)n2)cc1S(=O)(=O)C(C)(C)CO [Example 73, 2-{[5-({4-[(5-fluoro-1H-indazol-3-yl)amino]-2-pyrimidinyl}amino)-2-methylphenyl]sulfonyl}-2-methyl-1-propanol] | greater than or equal to 6.0
7 | CC(C)S(=O)(=O)c1cc(Nc2nccc(Nc3n[nH]c4ccc(F)cc34)n2)ccc1F [Example 74, N4-(5-fluoro-1H-indazol-3-yl)-N2-{4-fluoro-3-[(1-methylethyl)sulfonyl]phenyl}-2,4-pyrimidinediamine] | greater than or equal to 6.0
8 | COc1cc(Nc2nccc(N(C)c3n[nH]c4ccc(F)cc34)n2)cc(S(C)(=O)=O)c1 [Example 75, N4-(5-fluoro-1H-indazol-3-yl)-N4-methyl-N2-[3-(methyloxy)-5-(methylsulfonyl)phenyl]-2,4-pyrimidinediamine] | greater than or equal to 6.0
9 | Cc1c(F)cc(Nc2nccc(Nc3n[nH]c4ccc(F)cc34)n2)cc1S(C)(=O)=O [Example 76, N^4-(5-fluoro-1H-indazol-3-yl)-N^2-[3-fluoro-4-methyl-5-(methylsulfonyl)phenyl]-2,4-pyrimidinediamine] | greater than or equal to 6.0
10 | CN(c1cccc(Nc2nccc(Nc3n[nH]c4ccc(F)cc34)n2)c1)S(C)(=O)=O [Example 77, N-[3-({4-[(5-fluoro-1H-indazol-3-yl)amino]-2-pyrimidinyl}amino)phenyl]-N-methylmethane sulfonamide] | greater than or equal to 6.0
11 | CN(C)c1cc(Nc2nccc(Nc3n[nH]c4ccc(F)cc34)n2)cc(S(C)(=O)=O)c1 [Example 78, N^2-[3-(dimethylamino)-5-(methylsulfonyl)phenyl]-N^4-(5-fluoro-1H-indazol-3-yl)-2,4-pyrimidinediamine] | greater than or equal to 6.0
12 | NC(=O)c1cccc(Nc2nccc(Nc3n[nH]c4ccc(F)cc34)n2)c1 [Example 79, 3-({4-[(5-fluoro-1H-indazol-3-yl)amino]-2-pyrimidinyl}amino) benzamide] | greater than or equal to 6.0
13 | CS(=O)(=O)c1ccc(Nc2nccc(Nc3n[nH]c4ccc(F)cc34)n2)c(F)c1 [Example 80, N4-(5-fluoro-1H-indazol-3-yl)-N2-[2-fluoro-4-(methylsulfonyl)phenyl]-2,4-pyrimidinediamine] | greater than or equal to 6.0
